# Reference: paper PMC4239118
# Chains of the proteins cited; added tags and fusions are not shown.
# UniProt V5IN79: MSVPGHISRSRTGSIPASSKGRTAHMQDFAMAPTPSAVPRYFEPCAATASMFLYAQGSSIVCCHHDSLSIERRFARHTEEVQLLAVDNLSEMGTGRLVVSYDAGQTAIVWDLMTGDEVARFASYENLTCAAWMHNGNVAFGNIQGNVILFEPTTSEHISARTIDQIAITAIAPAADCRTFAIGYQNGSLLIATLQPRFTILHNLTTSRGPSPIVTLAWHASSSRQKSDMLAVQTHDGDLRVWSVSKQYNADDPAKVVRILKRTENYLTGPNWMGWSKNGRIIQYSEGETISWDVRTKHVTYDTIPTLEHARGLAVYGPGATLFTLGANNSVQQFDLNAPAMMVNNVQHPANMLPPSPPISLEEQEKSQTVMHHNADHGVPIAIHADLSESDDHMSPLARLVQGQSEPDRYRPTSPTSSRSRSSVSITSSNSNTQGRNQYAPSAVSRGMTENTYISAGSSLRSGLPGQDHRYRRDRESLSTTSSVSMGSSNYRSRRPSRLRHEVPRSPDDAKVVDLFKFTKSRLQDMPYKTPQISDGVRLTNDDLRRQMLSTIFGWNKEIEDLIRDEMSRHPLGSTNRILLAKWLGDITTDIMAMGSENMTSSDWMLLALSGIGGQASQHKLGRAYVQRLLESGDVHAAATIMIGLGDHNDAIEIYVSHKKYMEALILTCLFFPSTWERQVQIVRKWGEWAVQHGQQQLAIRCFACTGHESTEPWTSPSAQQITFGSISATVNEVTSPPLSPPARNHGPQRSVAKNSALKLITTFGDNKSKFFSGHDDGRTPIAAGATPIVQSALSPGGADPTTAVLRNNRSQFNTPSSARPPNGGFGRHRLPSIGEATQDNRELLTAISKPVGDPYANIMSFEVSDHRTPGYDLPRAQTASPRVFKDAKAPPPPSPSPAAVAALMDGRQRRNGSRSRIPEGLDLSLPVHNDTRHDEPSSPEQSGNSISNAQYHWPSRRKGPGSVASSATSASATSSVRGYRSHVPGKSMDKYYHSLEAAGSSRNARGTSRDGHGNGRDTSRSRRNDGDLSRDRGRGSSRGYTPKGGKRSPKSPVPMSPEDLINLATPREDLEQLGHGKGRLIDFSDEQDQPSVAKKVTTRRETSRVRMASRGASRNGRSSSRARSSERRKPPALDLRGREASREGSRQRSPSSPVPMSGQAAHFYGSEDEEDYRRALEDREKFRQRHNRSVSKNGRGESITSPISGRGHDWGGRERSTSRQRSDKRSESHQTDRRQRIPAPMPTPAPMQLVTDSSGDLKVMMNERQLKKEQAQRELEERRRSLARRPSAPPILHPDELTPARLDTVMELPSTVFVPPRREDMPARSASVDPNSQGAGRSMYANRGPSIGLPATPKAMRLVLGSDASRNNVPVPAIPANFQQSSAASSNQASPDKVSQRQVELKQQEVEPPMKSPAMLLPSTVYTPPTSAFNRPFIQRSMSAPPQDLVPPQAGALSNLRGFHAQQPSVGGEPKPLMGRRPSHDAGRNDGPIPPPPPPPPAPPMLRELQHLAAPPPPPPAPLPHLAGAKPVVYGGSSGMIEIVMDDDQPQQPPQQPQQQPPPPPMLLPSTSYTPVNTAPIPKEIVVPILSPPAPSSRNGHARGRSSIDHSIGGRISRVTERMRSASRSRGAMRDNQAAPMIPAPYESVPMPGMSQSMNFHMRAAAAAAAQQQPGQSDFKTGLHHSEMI
# Like-named read-outs stand apart in the source and are kept apart here. No constants are given. Whether binding was seen depends on the method and setting. For some of these results: Binding seen in cells or lysates may run through a third protein. Some binding calls cover weakened binding; strength is not graded here. For some of these results: Tags and fused reporters may be left off the sequences shown.
# T1: MAK-2 (yeast two-hybrid construct) (Neurospora crassa) (UniProt V5IKE7)
# T1 sequence: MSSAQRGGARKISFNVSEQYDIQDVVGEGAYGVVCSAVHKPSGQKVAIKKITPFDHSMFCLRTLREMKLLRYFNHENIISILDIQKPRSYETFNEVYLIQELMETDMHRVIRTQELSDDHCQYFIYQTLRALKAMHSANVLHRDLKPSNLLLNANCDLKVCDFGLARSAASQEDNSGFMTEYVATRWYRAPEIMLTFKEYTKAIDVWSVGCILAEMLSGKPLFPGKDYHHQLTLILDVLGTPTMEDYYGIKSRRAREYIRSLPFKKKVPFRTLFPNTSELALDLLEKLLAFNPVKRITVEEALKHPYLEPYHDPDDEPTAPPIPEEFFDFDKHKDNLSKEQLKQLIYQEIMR
# T2: functionally tagged MAK-2 (Neurospora crassa) (UniProt V5IKE7)
# T2 sequence: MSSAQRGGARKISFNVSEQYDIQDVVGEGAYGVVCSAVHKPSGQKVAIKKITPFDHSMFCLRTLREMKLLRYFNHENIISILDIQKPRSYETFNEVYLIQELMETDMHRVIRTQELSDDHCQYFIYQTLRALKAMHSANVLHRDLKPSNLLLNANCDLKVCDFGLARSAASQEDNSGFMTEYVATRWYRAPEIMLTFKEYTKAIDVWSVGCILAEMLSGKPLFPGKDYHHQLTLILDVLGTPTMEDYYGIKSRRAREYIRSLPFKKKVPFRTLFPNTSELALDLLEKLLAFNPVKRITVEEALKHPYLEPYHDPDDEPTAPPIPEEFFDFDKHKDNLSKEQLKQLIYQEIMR
# How the values were obtained:
# [1] = molecular target: HAM-5 (yeast two-hybrid construct) (Neurospora crassa) (UniProt V5IN79); experiment: two-hybrid; constructs co-expressed in yeast strain AH109, growth on selective media; reciprocal assays in Figure S2
# [2] = molecular target: T1, MAK-2 (yeast two-hybrid construct) (Neurospora crassa); experiment: as above
# [3] = molecular target: T2, functionally tagged MAK-2 (Neurospora crassa); experiment: co-IP; reciprocal co-immunoprecipitation from N. crassa cell extracts co-expressing tagged proteins, wild type background
# [4] = molecular target: HAM-5 (yeast two-hybrid construct) (Neurospora crassa) (UniProt V5IN79); experiment: two-hybrid; constructs co-expressed in yeast strain AH109, growth on selective media; reciprocal assays in Figure S2; remark: listed apart in the source
molecule,measurement,setting,value
HAM-5 (yeast two-hybrid construct) (from UniProt V5IN79 1-1686),binding,[1],binds
same,binding,[2],binds
functionally tagged HAM-5 (from UniProt V5IN79 1-1686),binding,[3],binds
"STE-20 (yeast two-hybrid construct) (enzyme, UniProt Q7RZD3 1-954) MDGQLSLLSPTSSSSTSHSRKRLTKKQRPPSANHRTSSSFNVESLRIDAQSLDSKRSASSLRQGPNCNQSPSLARTVSVPVSVPSNAPAHTKASDLSLPRSHTTRSQSANRPYNPTQTIPTNRFILSPASSSQPQTQSPPYPSAVASTTVTSSRNKDTSKQYDPLDSCIGSFDQNKLSTDELIGAPFDGNAILSRIEATKLSAAPAPTSTTTIAHSNNISPRRVAPPPPPPPPALSRSNTDSKAARSSKPSKSPKSTISNKTMGASSFRHSASFSSAEQLPPSEKPSKSESSSSSNKRHSGDGKESRVPGMLRKKSGFSGFMNSLVGSPKKPLISAPENPVHVTHVGYDSNTGQFTGLPKEWQRLISESGITEKDRREHPQILVDVLTFYKETTEKPQEDQQLEKFHDARATDFRSPPVTGTAPLVLQTGVGYAHGPMSPMISPPASPRFPQVGHEGSFENPRAPPPVPKGPGPLPAKDINLIPSRPAPKPPAISTRPLVPPASLPAKDSGIGMPPPGDEAPMPYLPPKDNVQHMYQEEHRNRSRSNSRTNGAAPFSPVQASPLHPIATANQTAAYQQQLLQHQQEQAMAQAQAAMSGQLSRAASKRQQPTPPTSQHQHPRQPDINGAPRMPQTQGAAPQASARPRHRPRQSNAIDVVASLKRICSDGDPREIYRGFTKIGQGASGGVYTGHERGSNRLVAIKQMNLEQQPKKDLIINEILVMKESSHPNIVNFIDSYLCAGELWVVMEYMEGGSLTDVVTFNIMTEGQIASVCRETLRGLQHLHSKGVIHRDIKSDNILLSMEGNIKLTDFGFCATINEAQSKRTTMVGTPYWMAPEVVTRKEYGRKVDIWSLGIMAIEMIEGEPPYLTESPLRALWLIATNGTPHIKDEQSLSPVFRDFLYFALKVDPEKRASAHDLLRHDFMNKCVDLSTLAPLVRAAREARAQEKARKGQ",binding,[4],binds
